{
  "source": "patent US8680268B2",
  "about": "“Sulfonic acid derivative compound and novel naphthalic acid derivative compound” (Adeka Corporation, priority 2010, dated 2014)",
  "assay": "Evaluation of resist sensitivity (light exposure value from patterns formed)",
  "details": "resist liquid on aluminum plate, high-pressure mercury lamp",
  "data": [
    {"smiles": "O=C1c2cccc3cccc(c23)C(=O)N1OS(=O)(=O)C(F)(F)F", "note": "[Comparative compound 2]", "values": [
      {"measurement": "Light exposure sensitivity", "setting": "365 nm", "value": 1.0, "unit": "J/cm^2"},
      {"measurement": "Light exposure sensitivity", "setting": "405 nm", "value": ">33", "unit": "J/cm^2"},
      {"measurement": "Light exposure sensitivity", "setting": "435 nm", "value": ">33", "unit": "J/cm^2"}
    ]}
  ]
}
